Reference: the supplement of paper PMC12823440, “Inhibitors supercharge kinase turnover through native proteolytic circuits” (Nature, 2025)
This is one part of the list. Hit calls seldom repeat between salt and free forms of one compound.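 Kinases were expressed as nanoluciferase fusions in K562 cells and luminescence was read every 4 h between 2 and 18 h as percent of control, DMSO set to 100% and a positive control to 0%. A time point counts as decreased when the signal drops significantly (2 sigma). The hit call is the authors' own, does not follow from the count of time points alone, and its rule is not shown.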

The chains behind the UniProt entries cited, without tags or fusion partners.
UniProt P42356, whole entry, looked up: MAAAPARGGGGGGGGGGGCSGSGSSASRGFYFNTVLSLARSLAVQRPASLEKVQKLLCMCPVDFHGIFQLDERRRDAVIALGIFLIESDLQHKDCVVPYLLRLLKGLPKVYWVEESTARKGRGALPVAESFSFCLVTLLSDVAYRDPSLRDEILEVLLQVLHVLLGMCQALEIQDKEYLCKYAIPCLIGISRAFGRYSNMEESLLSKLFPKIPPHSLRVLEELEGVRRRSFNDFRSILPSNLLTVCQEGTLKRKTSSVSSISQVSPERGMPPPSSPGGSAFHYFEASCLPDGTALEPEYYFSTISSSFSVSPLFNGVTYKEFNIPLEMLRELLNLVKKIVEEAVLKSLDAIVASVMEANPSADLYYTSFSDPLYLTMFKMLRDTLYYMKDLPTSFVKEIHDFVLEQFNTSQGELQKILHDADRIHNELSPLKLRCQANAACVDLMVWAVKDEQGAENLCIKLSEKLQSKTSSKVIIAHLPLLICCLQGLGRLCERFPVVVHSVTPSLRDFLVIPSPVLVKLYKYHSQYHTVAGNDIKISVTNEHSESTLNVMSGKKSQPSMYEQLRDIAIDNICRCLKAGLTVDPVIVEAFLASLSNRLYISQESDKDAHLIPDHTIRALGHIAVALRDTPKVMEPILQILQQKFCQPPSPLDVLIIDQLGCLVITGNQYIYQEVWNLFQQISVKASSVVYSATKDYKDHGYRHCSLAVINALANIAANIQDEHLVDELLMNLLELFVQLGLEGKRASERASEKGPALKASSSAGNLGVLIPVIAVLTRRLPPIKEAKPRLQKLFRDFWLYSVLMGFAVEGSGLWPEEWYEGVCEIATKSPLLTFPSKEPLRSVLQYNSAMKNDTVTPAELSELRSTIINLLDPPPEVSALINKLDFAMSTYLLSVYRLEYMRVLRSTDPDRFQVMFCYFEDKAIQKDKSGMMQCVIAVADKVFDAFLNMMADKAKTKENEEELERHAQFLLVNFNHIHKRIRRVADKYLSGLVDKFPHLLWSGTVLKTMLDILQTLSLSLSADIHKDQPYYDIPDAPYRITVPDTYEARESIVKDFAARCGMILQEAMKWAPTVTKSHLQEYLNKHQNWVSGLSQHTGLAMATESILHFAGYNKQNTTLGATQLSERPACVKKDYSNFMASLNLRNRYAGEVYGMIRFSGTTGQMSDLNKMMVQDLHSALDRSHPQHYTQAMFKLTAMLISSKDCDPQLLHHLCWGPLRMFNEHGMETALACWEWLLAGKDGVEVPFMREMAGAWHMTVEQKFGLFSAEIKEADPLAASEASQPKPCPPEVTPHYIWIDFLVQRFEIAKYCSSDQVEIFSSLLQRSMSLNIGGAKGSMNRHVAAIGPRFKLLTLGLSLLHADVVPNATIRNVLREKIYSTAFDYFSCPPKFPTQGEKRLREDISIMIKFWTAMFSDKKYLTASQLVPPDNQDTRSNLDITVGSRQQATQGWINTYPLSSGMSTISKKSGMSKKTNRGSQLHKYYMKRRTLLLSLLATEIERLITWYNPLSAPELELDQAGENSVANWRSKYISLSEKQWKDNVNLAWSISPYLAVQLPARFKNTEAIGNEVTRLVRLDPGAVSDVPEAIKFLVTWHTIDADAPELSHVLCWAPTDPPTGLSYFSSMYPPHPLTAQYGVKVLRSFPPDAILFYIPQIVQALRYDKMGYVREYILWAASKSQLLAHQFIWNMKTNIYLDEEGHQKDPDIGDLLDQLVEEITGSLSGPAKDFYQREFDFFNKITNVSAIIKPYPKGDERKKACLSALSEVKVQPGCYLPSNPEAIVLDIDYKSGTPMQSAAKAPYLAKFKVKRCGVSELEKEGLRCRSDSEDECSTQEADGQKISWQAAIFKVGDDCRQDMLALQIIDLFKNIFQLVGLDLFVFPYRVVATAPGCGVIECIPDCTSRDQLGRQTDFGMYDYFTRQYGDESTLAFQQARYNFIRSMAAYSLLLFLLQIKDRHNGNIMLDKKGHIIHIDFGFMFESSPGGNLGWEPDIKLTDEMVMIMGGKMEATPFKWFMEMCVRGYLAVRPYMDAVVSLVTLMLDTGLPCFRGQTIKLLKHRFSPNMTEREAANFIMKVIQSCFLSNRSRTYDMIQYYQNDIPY

target: PIK4CA (UniProt P42356); test: number of time points (of 5) at which kinase-Nluc abundance scored as decreased, DMSO-normalised (count); higher = more persistent destabilization; conditions: K562; 2-18 h

SMILES | number of time points
O=Nc1c(-c2c(O)[nH]c3cc(Br)ccc23)[nH]c2ccccc12 [GSK 3 Inhibitor IX] (2.5 µM) | 0
Cn1c2cc([S+](C)[O-])sc2c2cnn(Cc3cccc(N)c3)c(=O)c21 (stereo not drawn) (2.5 µM) | 0
Cc1cc(-n2c(=O)ccc3c[nH]c4nccc-4c32)ccc1F (10 µM) | 0
CCCn1/c(=N/C(=O)c2cccc(C(N)=O)c2)[nH]c2ccccc21 [Takinib] (10 µM) | 0
CO[C@H]1C[C@@H]2CC[C@@H](C)[C@@](O)(O2)C(=O)C(=O)N2CCCC[C@H]2C(=O)O[C@H]([C@H](C)C[C@@H]2CC[C@@H](OCCO)[C@H](OC)C2)CC(=O)[C@H](C)/C=C(\C)[C@@H](O)[C@@H](OC)C(=O)[C@H](C)C[C@H](C)/C=C/C=C/C=C/1C [Everolimus] (10 µM) | 0
Cc1cccc(-c2[nH]ncc2-c2ccnc3ccccc23)n1 (10 µM) | 0
CC1(N)CCN(c2cccnc2NC(=O)c2nc(-c3ncccc3C(F)(F)F)cnc2N)CC1 [Darovasertib] (10 µM) | 0
COc1cc2c(cc1Nc1ncc(C(N)=O)c(Nc3c(F)cccc3C(F)(F)F)n1)CN(C)CC2 (2.5 µM) | 0
COc1cc2ncnc(Nc3ccc(O)c(Br)c3)c2cc1OC (10 µM) | 0
Nc1nc2c(nc(Br)n2[C@@H]2O[C@@H]3COP(=O)(O)O[C@H]3[C@H]2O)c(=O)[nH]1 [8-Bromo-cGMP (sodium)] (10 µM) | 0
O=c1c2c([nH]n1-c1nc3ccccc3s1)CCCC2 (10 µM) | 0
COC(=O)Nc1ccc(-c2nc(N3CCOCC3)c3cnn(C4CCN(Cc5cccnc5)CC4)c3n2)cc1 (10 µM) | 0
N[C@@H]1CCCN(c2c(/C=C3\SC(=O)NC3=O)cccc2-c2ccccc2)C1 (10 µM) | 0
Nc1nc(N)c2nc(-c3cccc(O)c3)c(-c3cccc(O)c3)nc2n1 (10 µM) | 0
Cn1ncc(NC(=O)c2nc(-c3c(F)cccc3F)sc2N)c1N1CC[C@@H](N)[C@H](F)CC1 (10 µM) | 0
C=C1C(=O)[C@@]23[C@H](O)C[C@@H]4C(C)(C)C(=O)CC[C@@]4(C)[C@@H]2CC[C@@H]1[C@H]3O [Glaucocalyxin A] (2.5 µM) | 0
O=C(NCCO)c1cc(C(=O)NCCO)cc(C(=O)NCCO)c1 (10 µM) | 0
CCC(=O)Nc1cccc(Oc2nc(Nc3ccc(N4CCN(C)CC4)cc3OC)ncc2Cl)c1 (10 µM) | 0
Cc1nn(C)cc1-c1nc2c(N3CCN(Cc4ccc(Cl)cc4)CC3)c(Cl)cnc2[nH]1 (10 µM) | 0

SMILES | number of time points
CC(C)Oc1ccc(F)c(-c2cnc(N)c(C(=O)Nc3cnccc3N3CCC[C@@H](C(=O)O)C3)n2)c1 (2 µM) | 0
Nc1ncc(C(=O)NC2CN(C(=O)C3CC3)C2)c2ccc(-c3cccc(F)c3)nc12 (2 µM) | 0
O=C(ON=C1c2ccccc2-c2nc3ccccc3nc21)c1ccco1 (2.5 µM) | 0
CC(C)=CC[C@@H](O)C1=CC(=O)c2c(O)ccc(O)c2C1=O [Shikonin] (10 µM) | 0
COC(=O)Nc1ccc(-c2nc(N3CCOCC3)c3cnn(C4CCN(C(=O)OC)CC4)c3n2)cc1 (10 µM) | 0
CNC(=O)c1ccc2c(c1)ncn2-c1ccc(CC(=O)OC(C)(C)C)cc1 (10 µM) | 0
O=C1CC[C@H](NC(=O)Cc2ccccc2)C(=O)N1 [Antineoplaston A10] (10 µM) | 0
COCCOCCc1c(C)c2cc(OC)c(O)c(C=O)c2oc1=O (10 µM) | 0
Cc1ccc(C(=O)NC2CC2)cc1-n1ncc(C(=O)c2cccc(C#N)c2)c1N [Acumapimod] (10 µM) | 0
O=C(NCCN1CCOCC1)Nc1nc2ccc(Sc3nnc4ccc(-c5ccc(F)cc5)nn34)cc2s1 (10 µM) | 0
COc1cc(F)ccc1-c1ncnc(Nc2cccc(C[S@](C)(=N)=O)c2)n1 [Atuveciclib] (2.5 µM) | 0
CCn1c(-c2nonc2N)nc2c(C#CC(C)(C)O)ncc(OC[C@H]3CCCNC3)c21 (10 µM) | 0
O=c1[nH]ccc2nc(-c3ccc(CN4CCC(c5nc(-c6ccccn6)n[nH]5)CC4)cc3)c(-c3ccccc3)cc12 (10 µM) | 0
COCCOc1ccc2c(c1)ncn2-c1ccc2cccc(N3CCC(N)CC3)c2n1 (10 µM) | 3
CN1CCC(CNc2ccc3ncc(-c4cccc(OC(F)(F)F)c4)n3n2)CC1 (2.5 µM) | 0
Cc1cc(C(=O)NC(C)(C)C)cc(C#Cc2ccc3c4c(oc3c2)C(C)(C)c2cc(NS(C)(=O)=O)ccc2C4=O)n1 (10 µM) | 0
CC(O)(C#Cc1ccc2c(c1)N(c1nc(N)ncc1Cl)CC2)c1nccs1 (stereo not drawn) (2.5 µM) | 0
COc1cc(-c2cc(-c3ccc(N4CCNCC4)cc3)cnc2C)cc(OC)c1OC (10 µM) | 0
Cn1c(CNc2cccc(C(=O)NCc3ccccc3C(F)(F)F)c2)nnc1-c1ccncc1 (10 µM) | 0

In another format: results already given
Cc1ccc(C(=O)NC2CC2)cc1-n1ncc(C(=O)c2cccc(C#N)c2)c1N [Acumapimod] (10 µM)
  number of time points: 0
O=C(NCCN1CCOCC1)Nc1nc2ccc(Sc3nnc4ccc(-c5ccc(F)cc5)nn34)cc2s1 (10 µM)
  number of time points: 0
